Source: patent publication US11458180B2, “Environmentally-friendly preparation method of composition containing anti-inflammatory active ingredients and use of composition” (SHANGHAI JAKA BIOTECH CO., LTD., priority 2019, dated 2022)
At least one structure is not confirmed: it was looked up by name or label, or the drawing left a doubt.

System: PGE-2
Experiment: Anti-inflammatory effect: LPS-induced PGE-2 expression by ELISA
Assay type: cell-based, mouse
Settings: summary statement
Procedure: In this experiment, Raw 264.7 cells were stimulated by LPS, then cell culture was collected, and the expression of the inflammatory factor PGE-2 was determined by enzyme-linked immunosorbent assay (ELISA). The compositions obtained in the examples and comparative examples were compared in terms of the influence on anti-inflammatory effects. Raw264.7 cells and LPS were used for the experiment.
Raw264.7 cells at logarithmic growth phase were collected as follows: culture medium was discarded, and the cells were washed twice with PBS, added with 0.25% trypsin, and placed at 37° C. for 5 min; digestion was terminated with DMEM complete culture medium including 10% FBS and 1% PS, and a resulting solution was centrifuged at 1,000 rpm for 3 min; and a resulting supernatant was discarded, and obtained cells were resuspended in complete culture medium and counted. A cell concentration was adjusted to 5×10^5 cells/ml, and a resulting cell suspension was added to a 96-well plate at 100 µl/well. […]
After the treatment, cell culture was collected to a new 96-well plate, and the expression of PGE-2 was determined by ELISA according to instructions of a kit. A PGE-2 content (E) was calculated according to a standard curve, and relative to the LPS group, a relative inhibition rate was calculated for each sample (inhibition rate (%)=(1-Etest substance group/ELPS group)×100).

C[C@@H]1C[C@H]2[C@@H]3CCC4=CC(=O)C=C[C@]4(C)[C@@]3(F)[C@@H](O)C[C@]2(C)[C@@]1(O)C(=O)CO [Dex, dexamethasone]
inhibitory effect on expression of inflammatory factor PGE-2 induced by LPS (in words): can inhibit the expression of PGE-2 in a dose-dependent manner
